Test results reported in paper PMC12682859, “Interconnected roles of mitochondrial carrier proteins ANT, PiT, and UCPs in proton transport” (Frontiers in Molecular Biosciences, 2025).
These are yes or no findings as the source states them, for the method shown. Binding can be weak; no strength is given. Where a sequence is shown, tags or fusion partners need not be part of it.

B1: uncoupling protein 4 (UCP4), recombinant His6-tagged (natural protein, human, UniProt O95847 1-323, looked up)
chain: MSVPEEEERLLPLTQRWPRASKFLLSGCAATVAELATFPLDLTKTRLQMQGEAALARLGDGARESAPYRGMVRTALGIIEEEGFLKLWQGVTPAIYRHVVYSGGRMVTYEHLREVVFGKSEDEHYPLWKSVIGGMMAGVIGQFLANPTDLVKVQMQMEGKRKLEGKPLRFRGVHHAFAKILAEGGIRGLWAGWVPNIQRAALVNMGDLTTYDTVKHYLVLNTPLEDNIMTHGLSSLCSGLVASILGTPADVIKSRIMNQPRDKQGRGLLYKSSTDCLIQAVQGEGFMSLYKGFLPSWLRMTPWSMVFWLTYEKIREMSGVSPF
notes: human UCP4, UniProt O95847; Cloned in pET26b(+); purified as a monomer in OG, tetramer after reconstitution in liposomes; source: E. coli BL21 (DE3) or BL21 CodonPlus (DE3)-RIPL, extracted from bacterial membranes, purified (Ni-NTA IMAC, 1% OG); not shown: pelB leader, N-terminal, cleaved; His6, N-terminal, kept
B2: uncoupling protein 2 (UCP2), recombinant His6-tagged (natural protein, human, UniProt P55851 1-309, looked up)
chain: MVGFKATDVPPTATVKFLGAGTAACIADLITFPLDTAKVRLQIQGESQGPVRATASAQYRGVMGTILTMVRTEGPRSLYNGLVAGLQRQMSFASVRIGLYDSVKQFYTKGSEHASIGSRLLAGSTTGALAVAVAQPTDVVKVRFQAQARAGGGRRYQSTVNAYKTIAREEGFRGLWKGTSPNVARNAIVNCAELVTYDLIKDALLKANLMTDDLPCHFTSAFGAGFCTTVIASPVDVVKTRYMNSALGQYSSAGHCALTMLQKEGPRAFYKGFMPSFLRLGSWNVVMFVTYEQLKRALMAACTSREAPF
notes: human UCP2, UniProt P55851; Cloned in pET26b(+); purified as a monomer in OG, tetramer after reconstitution in liposomes; source: E. coli BL21 (DE3) or BL21 CodonPlus (DE3)-RIPL, extracted from bacterial membranes, purified (Ni-NTA IMAC, 1% OG); not shown: pelB leader, N-terminal, cleaved; His6, N-terminal, kept
B3: adenine nucleotide translocase 1 (ANT1), recombinant His6-tagged (natural protein, bovine)
chain: SDQALSFLKDFLAGGVAAAISKTAVAPIERVKLLLQVQHASKQISAEKQYKGIIDCVVRIPKEQGFLSFWRGNLANVIRYFPTQALNFAFKDKYKQIFLGGVDRHKQFWRYFAGNLASGGAAGATSLCFVYPLDFARTRLAADVGKGAAQREFTGLGNCITKIFKSDGLRGLYQGFNVSVQGIIIYRAAYFGVYDTAKGMLPDPKNVHIIVSWMIAQTVTAVAGLVSYPFDTVRRRMMMQSGRKGADIMYTGTVDCWRKIAKDEGPKAFFKGAWSNVLRGMGGAFVLVLYDEIKKFV
notes: bovine ANT1, UniProt P02722; Cloned in pET26b(+); also called ADP/ATP carrier; AAC; source: E. coli BL21 (DE3) or BL21 CodonPlus (DE3)-RIPL, extracted from bacterial membranes, purified (Ni-NTA IMAC, 1% OG); not shown: pelB leader, N-terminal, cleaved; His6, N-terminal, kept

The binders below were run against phosphate translocase PiT-B, recombinant His6-tagged (human) (assay: semi-native SDS-PAGE; two purified monomeric proteins co-reconstituted 1:1 in liposomes (UCP4:ANT1 also 3:1 and 1:3), regardless of lipid composition (EYPC with or without 2.5% CL); Coomassie staining; both purified).

binding, binds:
B1
B2
B3
